From article PMC7214460 come the findings set out here.

Protein sequences, listed by entry. Tags and fused reporters are not part of them. Residues count along the entry.
UniProt P11021, residues 19-654: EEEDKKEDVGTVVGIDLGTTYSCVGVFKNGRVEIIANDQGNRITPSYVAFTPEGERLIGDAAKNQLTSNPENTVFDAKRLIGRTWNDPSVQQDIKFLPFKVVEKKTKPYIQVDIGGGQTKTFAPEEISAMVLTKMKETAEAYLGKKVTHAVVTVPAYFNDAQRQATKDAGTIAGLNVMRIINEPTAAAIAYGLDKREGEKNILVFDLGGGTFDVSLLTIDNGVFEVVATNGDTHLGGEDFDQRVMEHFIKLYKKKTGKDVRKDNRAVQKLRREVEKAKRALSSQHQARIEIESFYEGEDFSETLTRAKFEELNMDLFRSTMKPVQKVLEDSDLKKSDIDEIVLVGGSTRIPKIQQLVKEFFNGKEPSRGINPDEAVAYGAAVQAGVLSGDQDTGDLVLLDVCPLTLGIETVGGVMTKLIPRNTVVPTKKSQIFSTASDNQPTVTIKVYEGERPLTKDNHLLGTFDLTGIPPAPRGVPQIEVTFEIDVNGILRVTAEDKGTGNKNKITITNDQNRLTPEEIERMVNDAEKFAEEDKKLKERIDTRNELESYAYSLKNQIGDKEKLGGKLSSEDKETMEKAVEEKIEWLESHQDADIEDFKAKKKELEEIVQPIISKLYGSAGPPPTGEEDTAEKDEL

No constants are given. Whether binding was seen depends on the method and setting. Binding seen in cells or lysates may run through a third protein. Some binding calls cover weakened binding; strength is not graded here.

The target in experiment [1] is T1, Polypeptide N-acetylgalactosaminyltransferase 6 (GALNT6) (human) (UniProt Q8NCL4).
T1 sequence: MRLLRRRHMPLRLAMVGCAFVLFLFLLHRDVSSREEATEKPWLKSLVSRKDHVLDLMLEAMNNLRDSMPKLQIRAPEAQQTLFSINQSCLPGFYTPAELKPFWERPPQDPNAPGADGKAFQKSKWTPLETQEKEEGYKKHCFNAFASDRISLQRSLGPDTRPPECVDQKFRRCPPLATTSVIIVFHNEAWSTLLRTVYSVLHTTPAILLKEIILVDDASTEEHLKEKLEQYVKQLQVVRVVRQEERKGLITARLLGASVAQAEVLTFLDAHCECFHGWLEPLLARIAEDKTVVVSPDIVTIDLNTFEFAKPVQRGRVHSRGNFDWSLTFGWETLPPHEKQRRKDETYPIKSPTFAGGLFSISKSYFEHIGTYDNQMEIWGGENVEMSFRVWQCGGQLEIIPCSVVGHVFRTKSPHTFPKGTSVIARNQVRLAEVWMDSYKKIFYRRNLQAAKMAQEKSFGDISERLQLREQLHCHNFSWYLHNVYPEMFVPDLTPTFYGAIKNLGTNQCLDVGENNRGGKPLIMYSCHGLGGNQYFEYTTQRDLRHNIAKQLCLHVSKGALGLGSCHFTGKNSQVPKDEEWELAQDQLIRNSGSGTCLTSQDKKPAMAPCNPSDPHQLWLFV
Description: co-IP; A549 stable cells (GRP78-OE with NC or G6-OE) lysed; extracts reacted with anti-GALNT6 or anti-GRP78 at 4 °C for 1 h, precipitated on Protein A columns (Capturem IP & Co-IP Kit), Western blot with anti-GALNT6 and anti-GRP78.

Experiment [2] has as its target Glucose-regulated protein 78 (GRP78) (human) (UniProt P11021). The experiment is described as above.

As for “Glucose-regulated protein 78 (GRP78) (from UniProt P11021 19-654)”, in experiment [1], the binding result was “binds”.

B1: Polypeptide N-acetylgalactosaminyltransferase 6 (GALNT6) (enzyme, UniProt Q8NCL4 1-622)
chain: T1 sequence
Consider B1, for which the binding result in experiment [2] is “binds”.
